According to the supplement of paper PMC3334620:
In all, about 33,000 sequences were measured (“E-score (-0.5 to 0.5)”: median about -8e-05, highest 2% from about 0.23 on). The list shows a part of the results.

molecular target: T1, Nrg2 (UniProt P38082); test: PBM E-score (8-mer binding enrichment) (E-score (-0.5 to 0.5)); higher = stronger / more preferred TF binding; conditions: protein concentration: 100 nM; construct: GST-full length
T1 sequence: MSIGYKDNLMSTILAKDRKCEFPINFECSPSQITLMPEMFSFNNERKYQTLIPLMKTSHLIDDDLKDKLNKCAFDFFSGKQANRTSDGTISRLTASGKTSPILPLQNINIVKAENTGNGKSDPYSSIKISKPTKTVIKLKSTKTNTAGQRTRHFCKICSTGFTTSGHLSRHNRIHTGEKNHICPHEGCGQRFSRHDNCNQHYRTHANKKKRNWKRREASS
How it was run: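 Yeast transcription factors, full-length or as DNA-binding domains, were expressed with a GST tag using PURExpress in vitro transcription/translation. At about 100-200 nM they were applied to universal all-10-mer Agilent arrays, double-stranded by primer extension on fresh or once-stripped slides. Fluorescent anti-GST detected bound protein, and masliner normalised the scans. E-scores for ungapped eight-base words, pooled with reverse complements, came from the Universal PBM Analysis Suite.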

Sequence | PBM E-score
GTCCCGGA | -0.0658
ACCGAATA | 0.0469
CAAGACGG | -0.00028
GAGTTTTA | -0.0534
AGCACAAA | 0.128
CACCATGC | -0.0346
TCTCGGCA | -0.0303
CCCCTTAA | 0.0754
ACACATAA | 0.0893
GCACGCAC | -0.138
TCACGCGA | 0.0588
AACGGGAG | 0.0507
AAGCTGCT | 0.0396
TAGACGGA | 0.0948
GCGGGACC | 0.00581
GAGCTTTA | -0.0717
ACCTCACT | -0.0963
CCTCGAGA | 0.156
ACACGTAG | -0.128
GTGGCTTA | -0.223
CGGTAGGC | -0.192
CTTCCAAC | -0.0441

Sequence | PBM E-score
GAGGCTTA | -0.134
CGCAGTCC | -0.095
CGTAGCAA | 0.0661
AGTGTACA | 0.00361
AGGGGAGA | -0.165
TTTTAAAA | -0.0578
TATAGTAA | 0.207
CCCCCCTC | -0.399
TAGTACGA | 0.0756
AAGCGCAT | 0.0701
CGAGTCGC | -0.17
GACAACAC | 0.0444
ACCAATTA | 0.221
ACACTACA | 0.108
CGTGACGA | 0.0379
TCCCGCAA | 0.198
GATCACGC | 0.197
GGAGTTGA | 0.0463
ACGGAGGC | -0.212
CCAGTAGG | -0.166
ACGAATAG | 0.0297
CTCCTAGC | -0.17

Sequence | PBM E-score
TATTACCA | 0.0363
ACTCTCCG | 0.0617
ACCCACTG | 0.0679
CAGTACCC | -0.0238
ACCTAAAA | 0.00925
GGCGTTCA | -0.0558
CGCATACA | 0.121
TATACAGA | 0.137
GCGGTAGA | -0.0506
ACTCTTAT | 0.155
CATCGCAC | -0.0129
CGCGTCTC | 0.0446
TCAGGACA | 0.0731
GACCGTTA | -0.117
AATGAAAT | 0.173
AACTCGGT | -0.00163
AACATTGT | 0.119
AGTATCCC | 0.118
AAAAAGAA | 0.137
GCTCTACC | -0.329
TCTCTGAA | -0.14
ATAGAATC | -0.0242

Sequence | PBM E-score
AATTACGG | 0.0369
ACATGATG | -0.184
GTTTTTAA | 0.0561
AACCCATA | 0.24
ATCGCCGG | 0.00351
ACCGTCGG | -0.165
AGTGACTG | -0.0772
AGCTCAAC | 0.031
ACCCCTCG | 0.0338
GCTCCACC | -0.211
CAGTTATC | -0.233
AGTGCTGC | -0.0775
CTATGAGA | -0.103
CAGGTTAA | -0.0788
AAACTCTA | -0.126
AAAATCTA | -0.133
AGCTACAA | 0.0651
ATGATGGC | -0.0437
ACGAGAGA | -0.0519
AAATCACA | -0.0167
ATTCAGTC | 0.03
AAAATAGA | 0.118

Sequence | PBM E-score
CGATCCCC | -0.116
AGCGGCCA | -0.223
CCCGTGCC | -0.14
GATGCTAC | 0.0389
GAGACTCC | -0.134
CAAAAGTG | 0.0547
CGCTGTCC | 0.0681
AGGAGAGA | -0.188
GTCAAGTA | -0.192
CGAAAGTC | -0.0766
AGTAAAAG | 0.154
GTCCACTA | 0.16
CACTGCGC | 0.0523
AAAGAGTG | -0.191
AACCCAGG | 0.0903
ATTGCGAA | -0.0318
AGTCGGTA | -0.254
ACTCTACC | 0.0105
ATCATGCC | 0.0753
TGGAAGAA | 0.0785
GGTGGTAA | 0.109

6 entries from above, tab-delimited.
Sequence	PBM E-score
ATTGCGAA	-0.0318
AGTCGGTA	-0.254
ACTCTACC	0.0105
ATCATGCC	0.0753
TGGAAGAA	0.0785
GGTGGTAA	0.109
